# Measurements reported in patent US11090310B2, “Methods and compositions for treating hypertriglyceridemia” (THE REGENTS OF THE UNIVERSITY OF CALIFORNIA, priority 2016, dated 2021).
# At least one compound was matched to its structure with a doubt left.
# Test: Plasma triglyceride levels of patients with GPIHBP1 autoantibodies under drug treatment (case follow-up)
# Format: in vivo, human
# Details: case reports of single patients (111, 157, 164)
smiles,measurement,value
CC(C)OC(=O)C(C)(C)Oc1ccc(C(=O)c2ccc(Cl)cc2)cc1 [fenofibrate],effect of treatment on plasma triglycerides / hypertriglyceridemia (in words),resistant
